{"source": "PubChem BioAssay AID504444", "about": "(National Center for Advancing Translational Sciences (NCATS), 2011)", "note": "The whole screen tested about 360,000 compounds, of which about 7,500 (2.1%) were called active. The shares of active, inactive and inconclusive entries below differ from those in the screen. Calls follow the shape of the dose curve; as a rule, active = well fitted inhibition curve with a large enough effect; inconclusive = small, poorly fitted or top-dose-only effect, or effect the other way; inactive = flat fitted curve, though single readings scatter. Potencies of inconclusive entries are doubtful fits and often do not repeat. % is scaled to controls: 0 for no effect and ±100 for the full control effect; potency is read from the fitted curve at half-maximal effect.", "data": [{"test": "Nrf2 qHTS screen for inhibitors; also: nearly all actives have a fitted effect of over 60% in size", "conditions": "A549 ARE-Fluc reporter, luciferase luminescence, 18-24 h; activity change, negative = inhibition: at 46 µM (top of the series)", "procedure,_shortened": "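Quantitative HTS in A549 cells stably bearing an antioxidant response element-firefly luciferase construct. Inhibition of Nrf2-driven transcription was scored by luminescence after 18-24 h of compound exposure at 37 °C.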", "values": [{"compound": "CN(c1ccccc1)S(=O)(=O)c1ccc(C(=O)Nc2nnc(-c3ccco3)o2)cc1", "Potency": "inconclusive: 29.1 µM [falling, partial curve, poor fit]"}, {"compound": "O=C(Nc1nnc(C(F)(F)F)s1)c1cccnc1", "Potency": "inconclusive: 2.59 µM [activator, full curve]"}, {"compound": "COc1ccc2[nH]c(=O)c(CN(Cc3ccco3)C(c3nnnn3Cc3ccccc3)C(C)C)cc2c1", "note": "(stereo not drawn)", "Potency": "inconclusive: 29.1 µM [falling, single point]"}, {"compound": "COc1cccc(NC(=O)c2sc3nc4n(c(=O)c3c2C)CCC4)c1", "Potency": "inconclusive: 18.4 µM [activator, single point]"}, {"compound": "COc1ccc(S(=O)(=O)N2CCCc3ccccc32)cc1[N+](=O)[O-]", "Potency": "inconclusive: 16.4 µM [activator, partial curve]"}, {"compound": "O=C(NC(=S)Nc1cccc([N+](=O)[O-])c1)c1ccco1", "Potency": "inconclusive: 23.1 µM [activator, partial curve, poor fit]"}, {"compound": "CC(=O)N1CCN(S(=O)(=O)c2cccc(C(=O)OCC(=O)NC(=O)c3cccn3C)c2)CC1", "Potency": "inconclusive: 29.1 µM [activator, single point]"}, {"compound": "O=C(Nc1ccccc1N1CCOCC1)c1ccc(Cl)c(S(=O)(=O)N2CCCC2)c1", "Potency": "inconclusive: 29.1 µM [falling, single point]"}, {"compound": "Cc1cccn2c(=O)c(/C=C(\\C#N)C(=O)NC3CCS(=O)(=O)C3)c(Oc3ccccc3Cl)nc12", "note": "(stereo not drawn)", "Potency": "inconclusive: 8.2 µM [activator, partial curve]"}, {"compound": "CCc1ccc2oc(-c3cccc(NC(=O)c4cc5ccccc5o4)c3)nc2c1", "Potency": "inconclusive: 14.6 µM [activator, partial curve, poor fit]"}, {"compound": "COc1ccc(N2C(=O)CC(C#N)=C2N)cc1", "Potency": "inconclusive: 29.1 µM [activator, single point]"}, {"compound": "COc1ccc(-c2nn(-c3ccccc3)cc2/C=C/C(=O)NCCCn2ccnc2)cc1OC", "Potency": "inconclusive: 29.1 µM [falling, single point]"}, {"compound": "CC(=O)C1CCC2C3CCC4=CC(=O)CCC4(C)C3(F)C(O)CC12C", "note": "(stereo not drawn)", "Potency": "active: 0.92 µM"}, {"compound": "Cc1ccc(S(=O)(=O)N2CC(C)N(C(=O)N3CCOCC3)C2C)cc1", "note": "(stereo not drawn)", "Potency": "inconclusive: 0.146 µM [activator, full curve, poor fit]"}, {"compound": "CSc1nsc(SC)c1C(=O)N1CCN(S(=O)(=O)c2ccc(C)cc2)C1C", "note": "(stereo not drawn)", "Potency": "inactive"}, {"compound": "Cc1ccc2nc(N3CCN(c4cccc(Cl)c4)CC3)c3nnnn3c2c1", "Potency": "inconclusive: 18.4 µM [activator, partial curve, poor fit]"}, {"compound": "Cc1ccc(C(=O)CSc2ncc3c(n2)-c2ccccc2N(Cc2ccc(Cl)cc2)S3(=O)=O)cc1", "Potency": "inconclusive: 16.4 µM [activator, single point]"}, {"compound": "c1ccc2oc(NC3=NCN(CC4CCCO4)CN3)nc2c1", "note": "(stereo not drawn)", "Potency": "inconclusive: 23.1 µM [activator, partial curve]"}, {"compound": "O=C(O)c1ccc2nc(-c3ccccc3)c(-c3ccccc3)nc2c1", "Potency": "inconclusive: 13 µM [activator, partial curve, poor fit]"}, {"compound": "CCOC(=O)c1cccc(-n2c(C)nc3ccccc3c2=O)c1", "Potency": "inactive"}, {"compound": "Cc1cc(C)cc(NC2=C(c3ccccc3)C(=O)c3ccccc32)c1", "Potency": "inconclusive: 16.4 µM [falling, partial curve]"}, {"compound": "O=C(CSc1ccc2ccccc2n1)Nc1ccc(N2CCOCC2)cc1", "Potency": "inconclusive: 6.51 µM [activator, partial curve, poor fit]"}, {"compound": "O=C(CCCNS(=O)(=O)c1cccs1)N1CCN(c2cccc(Cl)c2)CC1", "Potency": "inconclusive: 25.9 µM [falling, partial curve, poor fit]"}, {"compound": "O=C(O)C1CCCN(C(=O)c2cccc3ccccc23)C1", "note": "(stereo not drawn)", "Potency": "inconclusive: 9.2 µM [activator, partial curve, poor fit]"}, {"compound": "NS(=O)(=O)c1ccc(CCNc2ncnc3c2c(-c2ccccc2)cn3-c2ccc(F)cc2)cc1", "Potency": "inconclusive: 20.6 µM [falling, single point]"}, {"compound": "CC1(O)N(Cc2ccccc2)C(=O)OC12CCCCC2", "note": "(stereo not drawn)", "Potency": "inconclusive: 3.66 µM [falling, single point]"}, {"compound": "O=S(=O)(c1ccc(F)cc1)c1nc(-c2ccco2)oc1Nc1ccccc1", "Potency": "inconclusive: 13 µM [activator, partial curve]"}, {"compound": "N#Cc1ccsc1NC(=O)CCc1ccccc1", "Potency": "inconclusive: 8.2 µM [activator, partial curve]"}, {"compound": "N#CCCN1CCN(S(=O)(=O)c2ccc(S(=O)(=O)NC3CC3)cc2)CC1", "Potency": "inconclusive: 32.6 µM [falling, single point]"}, {"compound": "COc1ccccc1N1CCN(C(=O)CSc2nc3ccccc3nc2N2CCCCC2)CC1", "Potency": "inactive"}, {"compound": "CC1=C(C(N)=O)C(c2ccc(C)cc2)n2nc(SCc3ccccc3F)nc2N1", "note": "(stereo not drawn)", "activity change, negative = inhibition": "inactive: 3.12% [at 9.27 µM]"}, {"compound": "Cc1ccc(N(C)S(=O)(=O)c2cccc(C(=O)NNC(=O)c3ccncc3)c2)cc1", "Potency": "inconclusive: 14.6 µM [falling, partial curve, poor fit]"}, {"compound": "CCOc1ccc(C(=O)CCC(=O)Nc2ccc(C)c(S(=O)(=O)N3CCCCC3)c2)cc1", "Potency": "inconclusive: 16.4 µM [falling, single point]"}, {"compound": "CC(=O)N1c2ccc(S(=O)(=O)NCCc3ccc(Cl)cc3)cc2CC1C", "note": "(stereo not drawn)", "Potency": "inactive"}, {"compound": "CC(C)OCCCNc1ncnc2c1nc1n2CCCC1", "Potency": "inconclusive: 14.6 µM [activator, partial curve]"}, {"compound": "Cc1nnc(NC(=O)c2ccc(S(=O)(=O)N3CC(C)CC(C)C3)cc2)o1", "note": "(stereo not drawn)", "Potency": "inconclusive: 20.6 µM [falling, single point]"}, {"compound": "O=C(/C=C/c1ccccc1)c1ccc2ccccc2c1", "Potency": "inconclusive: 6.51 µM [activator, partial curve]"}, {"compound": "O=C(NCCOc1ccccc1)C1=CC=CN2CCS(=O)(=O)N=C12", "Potency": "inactive"}, {"compound": "Cc1ccc2cc(C#N)c(N3CCCN(C(=O)C4CCCO4)CC3)nc2c1C", "note": "(stereo not drawn)", "Potency": "inconclusive: 0.058 µM [falling, partial curve, poor fit]"}, {"compound": "COc1ccc(CCNC(=O)c2cc3c(s2)-c2ccccc2OC3)cc1OC", "Potency": "active: 23.1 µM"}, {"compound": "Cc1cccc(NC(=O)Nc2ccc(Br)cc2)n1", "Potency": "inconclusive: 1.64 µM [activator, full curve]"}, {"compound": "CN(Cc1ccccc1)C(=O)CN1C(=O)c2ccc([N+](=O)[O-])cc2C1=O", "Potency": "inconclusive: 5.8 µM [falling, full curve, poor fit]"}, {"compound": "C=CCc1cccc(C=Nc2cc(Br)ccc2O)c1O", "Potency": "inconclusive: 2.31 µM [falling, partial curve]"}, {"compound": "O=C1Nc2ccccc2Nc2ncccc21", "Potency": "inconclusive: 9.2 µM [falling, partial curve, poor fit]"}, {"compound": "Cc1nc([N+](=O)[O-])c(SCC(O)CCl)n1Cc1ccc(Cl)cc1", "note": "(stereo not drawn)", "Potency": "inconclusive: 18.4 µM [falling, partial curve, poor fit]"}, {"compound": "CC1=NNC(=O)C1CC(=O)N/N=C/C(Br)=C/c1ccccc1", "note": "(stereo not drawn)", "Potency": "inactive"}, {"compound": "Cc1ccc(-n2nc3c(N4CCC(C(=O)NC(C)c5ccccc5)CC4)nnc(C)c3c2C)cc1", "note": "(stereo not drawn)", "Potency": "inconclusive: 29.1 µM [activator, single point]"}, {"compound": "N#Cc1c(NC(=S)NC(=O)c2ccccc2)sc2c1CCCCC2", "Potency": "inconclusive: 18.4 µM [activator, partial curve]"}, {"compound": "CC(=O)Oc1ccc(-c2csc(Nc3ccc(Cl)cn3)n2)cc1", "Potency": "inconclusive: 18.4 µM [falling, partial curve, poor fit]"}, {"compound": "CCc1cccc(C)c1NC(=O)C1CCN(c2nn3c(=O)cc(C)nc3s2)CC1", "Potency": "inconclusive: 32.6 µM [activator, single point]"}, {"compound": "Cn1nnnc1Sc1ncnc2scc(-c3ccc(S(C)(=O)=O)cc3)c12", "Potency": "inconclusive: 29.1 µM [falling, single point]"}, {"compound": "COc1cccc(-c2sc3ccc(OC)cc3c2-c2ccc(O)cc2)c1", "Potency": "inactive"}, {"compound": "COc1cccc(C(=O)NCC(c2cccnc2)N2CCN(c3ccccc3OC)CC2)c1", "note": "(stereo not drawn)", "Potency": "inconclusive: 14.6 µM [falling, partial curve]"}, {"compound": "O=c1[nH]nc(CNc2ccc(Cl)cc2Cl)c2ccccc12", "Potency": "inconclusive: 16.4 µM [falling, single point]"}, {"compound": "O=C(/C=C/c1ccc(OCc2c(F)cccc2Cl)cc1)N1CCOCC1", "Potency": "inconclusive: 29.1 µM [activator, single point]"}, {"compound": "CCOc1cccc(C(=O)Nc2ccc3[nH]ncc3c2)c1", "Potency": "inconclusive: 0.92 µM [activator, full curve]"}, {"compound": "CCOCC(=O)Nc1c(C(=O)Nc2ccc3c(c2)OCO3)oc2ccccc12", "Potency": "inconclusive: 29.1 µM [activator, single point]"}, {"compound": "COc1ccc(-c2nsc3c(N4CCCC4)ncnc23)cc1", "Potency": "inconclusive: 0.82 µM [activator, partial curve, poor fit]"}, {"compound": "O=S(=O)(Nc1cccc2cccnc12)c1ccc(S(=O)(=O)N2CCCC2)cc1", "Potency": "active: 5.17 µM"}, {"compound": "COc1ccc([C@H]2CC(=O)C=C(c3cc4ccccc4s3)C2)cc1OC", "Potency": "inconclusive: 16.4 µM [falling, single point]"}, {"compound": "COC(=O)c1ccc(CO/N=C/c2ccc(OC)cc2OC)cc1", "Potency": "inconclusive: 14.6 µM [falling, partial curve]"}, {"compound": "CCOc1ccc(S(=O)(=O)Nc2ccc(C(=O)N3CC(C)OC(C)C3)cc2)cc1", "note": "(stereo not drawn)", "Potency": "inactive"}, {"compound": "O=C(c1ccccc1)N1CCN(c2ncnc3c2cnn3-c2ccccc2)CC1", "Potency": "inconclusive: 2.31 µM [activator, partial curve, poor fit]"}]}]}
